Measured values as given in PubChem BioAssay AID588590 (National Center for Advancing Translational Sciences (NCATS), 2011).
Screen size: about 390,000 compounds; about 4,000 (1%) were called active. Inconclusive results, whose numbers are uncertain, are shown with a selection of clear calls. The call rests on the fitted dose curve; in most records, active means well fitted inhibition curve with a large enough effect; inconclusive means small, poorly fitted or top-dose-only effect, or another doubt; inactive means no such curve, though single readings can be large or run the other way. Where the call is inconclusive, the potency comes from a doubtful curve fit.

Sequences of proteins named here, by UniProt entry; tags and fusion partners are left off. A change or cut given only in a name is not applied to a line headed by its entry.
UniProt Q9UNA4: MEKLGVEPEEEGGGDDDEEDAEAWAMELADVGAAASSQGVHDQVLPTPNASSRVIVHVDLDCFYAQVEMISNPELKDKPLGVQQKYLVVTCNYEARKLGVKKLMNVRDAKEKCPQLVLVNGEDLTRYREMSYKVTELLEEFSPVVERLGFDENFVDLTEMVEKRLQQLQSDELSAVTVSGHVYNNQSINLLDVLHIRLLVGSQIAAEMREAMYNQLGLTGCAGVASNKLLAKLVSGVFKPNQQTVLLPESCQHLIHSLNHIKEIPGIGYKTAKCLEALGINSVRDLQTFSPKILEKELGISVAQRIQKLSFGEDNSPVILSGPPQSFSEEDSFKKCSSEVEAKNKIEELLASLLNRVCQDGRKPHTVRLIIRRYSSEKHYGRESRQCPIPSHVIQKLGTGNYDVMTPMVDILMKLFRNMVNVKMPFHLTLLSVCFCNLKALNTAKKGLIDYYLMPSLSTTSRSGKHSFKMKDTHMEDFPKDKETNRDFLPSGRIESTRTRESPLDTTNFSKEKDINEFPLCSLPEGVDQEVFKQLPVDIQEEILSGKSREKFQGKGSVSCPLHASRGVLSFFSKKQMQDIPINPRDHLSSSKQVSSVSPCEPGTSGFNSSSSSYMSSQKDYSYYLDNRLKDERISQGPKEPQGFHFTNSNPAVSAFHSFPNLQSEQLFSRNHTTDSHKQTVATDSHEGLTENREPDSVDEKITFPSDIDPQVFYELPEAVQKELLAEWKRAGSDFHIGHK

Molecular target: DNA polymerase iota (Homo sapiens) (UniProt Q9UNA4)
Assay: qHTS for Inhibitors of Polymerase Iota
Conditions: Pol iota fluorescent replication assay, 10 min; series mostly up to 115 µM
Summary of the method: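 Fluorescent replication assay read twice, at 0 min and 10 min after adding 50 nM (final) substrate. Enzyme (10 nM) and compounds were first incubated 15 min at room temperature; enzyme-free buffer wells were negative controls.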
Potency means the concentration at half of the fitted maximal effect.

Potency, inactive:
COc1ccc(NC(=O)CN2C(=O)NC(C)(c3ccccc3)C2=O)c(OC)c1 (stereo not drawn), NS(=O)(=O)c1ccc(CCNC(=O)c2ccc(-c3ccccc3)cc2)cc1, C[C@H](NC(=O)c1nc[nH]c1C(=O)NCc1ccccc1)C(=O)OCc1ccccc1, CC(=O)c1cccc(NC(=O)Nc2sc3nc4n(c(=O)c3c2C)CCC(C)CC4)c1 (stereo not drawn), COc1ccc(/C=C\c2nc(O)c([N+](=O)[O-])c(=O)[nH]2)cc1O, COc1ccc(S(=O)(=O)N2CCCCC2)cc1NC(=O)CCc1nc2ccccc2c(=O)[nH]1, O=c1cc(-c2ccc(O)cc2)oc2c([C@@H]3O[C@H](CO)[C@@H](O)[C@H](O)[C@H]3O)c(O)c([C@@H]3O[C@H](CO)[C@@H](O)[C@H](O)[C@H]3O)c(O)c12, CCN1CCN(c2ncc3c(n2)CCN(Cc2cc(Br)cs2)C3)CC1, Cc1cc(C)cc(Nc2cc(=O)n(C3CCCCC3)c(=O)[nH]2)c1, CC(C)(C)c1ccc(S(=O)(=O)N2CCC(Oc3ccc(-n4cnnn4)cc3)CC2)cc1, CC(=O)Nc1ccc(NC(=O)CC2(CC(=O)N3CCOCC3)CCCC2)cc1, COc1cc(/C=N/n2c(-c3n[nH]c4c3CCC4)n[nH]c2=S)cc(OC)c1O, O=C(CSc1nc2ccsc2c(=O)n1Cc1ccc(F)cc1)NCc1ccc(Cl)cc1, CC1=CC2=NC(=O)/C(=C/c3coc4ccc(Cl)cc4c3=O)C(=N)N2O1, CCOC(=O)C1=C(CN2CCN(c3ccc(Cl)cc3)CC2)NC(=O)NC1c1ccc(OC)cc1 (stereo not drawn), COc1cccc(C2CC(=O)Nc3c2c(=O)n(C)c2nc4ccccc4n32)c1OC (stereo not drawn), N#C/C(=N\Nc1cccc(C(F)(F)F)c1)C(=O)c1csc(-c2cccnc2)n1

Potency, inconclusive:
CCc1ccc(Nc2n[n+](-c3ccccc3)c(-c3cc(OC)c(OC)cc3Br)s2)cc1 7.94 µM [inhibitor, single point], CCOC(=O)C(CC)(CC)C(=O)/C=C/c1ccc(OC)cc1 39.8 µM [inhibitor, partial curve, poor fit], CC1=C(/C=C/C(C)=C/C=C/C(C)=C/CO)C(C)(C)CCC1 70.8 µM [inhibitor, partial curve], COc1ccccc1N/N=C/c1ccc2c(c1)OCO2 63.1 µM [inhibitor, single point], O=C(CNC(=O)c1ccccc1)OCc1cc(=O)n2nc(C3CCCCC3)sc2n1 89.1 µM [inhibitor, single point], Cc1ccc2sc(N(Cc3cccnc3)C(=O)CCS(=O)(=O)c3ccccc3)nc2c1C 31.6 µM [inhibitor, partial curve, poor fit], N#CCSc1ncnc2sc3c(c12)CCC3 20 µM [inhibitor, full curve, poor fit], Cc1sc2nc(CSCC(=O)NC3(C#N)CCCCC3)[nH]c(=O)c2c1C 50.1 µM [inhibitor, partial curve], Cc1cc(Br)cc(Cl)c1OC(=O)c1cnccn1 31.6 µM [inhibitor, full curve], CCn1ncc(/C=C/C(=O)Nc2c(C)nn(Cc3ccc(Cl)cc3Cl)c2C)c1C 89.1 µM [inhibitor, partial curve], COc1ccc(C(=O)NCc2nnc(SC)n2C2CCCCC2)cc1 0.708 µM [inhibitor, full curve, poor fit], NS(=O)(=O)c1ccc(CCNC(=O)C2CCN(c3ncnc4c3nc3n4CCCCC3)CC2)cc1 79.4 µM [inhibitor, single point], C#CCOCCOCCOCCNc1nc(N2CCN(C(=O)CCCCCCCCCCNC(=O)Cn3cc(C[C@@H](C)O)nn3)CC2)nc(N2CCN(C(=O)CCCCCCCCCCNC(=O)[C@@H]([C@H](C)CC)n3cc(CCCCCN)nn3)CC2)n1 17.8 µM [inhibitor, partial curve, poor fit], Cc1cccc(CN2C(=O)c3ccccc3Sc3ccc(C(=O)NCc4ccco4)cc32)c1 89.1 µM [inhibitor, single point], CCC1CSC(Nc2ccc(C(=O)/C=C/c3ccc(Oc4ccccc4)cc3)cc2)=N1 (stereo not drawn) 89.1 µM [inhibitor, single point], COc1ccc(S(=O)(=O)N(Cc2nc3ccccc3c(=O)[nH]2)C2CCCC2)cc1 17.8 µM [inhibitor, partial curve, poor fit], CCOC(=O)C1=C(C)N(CCCC(=O)O)C(=O)NC1c1cccs1 (stereo not drawn) 14.1 µM [inhibitor, partial curve, poor fit], CC(C)C[C@H](NC(=O)c1[nH]cnc1C(=O)N[C@H](C)c1ccccc1)C(=O)OC(C)(C)C 0.631 µM [inhibitor, full curve, poor fit], O=C(O)CC(C(=O)OCC1CCCO1)N1CCOCC1 (stereo not drawn) 7.94 µM [inhibitor, full curve, poor fit], Cn1c(SCC(=O)N2c3ccccc3Sc3ccccc32)nc2ccccc21 100 µM [inhibitor, partial curve, poor fit], CN(C(=O)c1cccc(NC(=O)Cc2ccc(NC(=O)C3CCCN(C(=O)C4CC4)C3)cc2)c1)C1CCCC1 (stereo not drawn) 50.1 µM [inhibitor, partial curve, poor fit], O=C(N/N=C/c1cccnc1)c1cc(O)c(O)c(O)c1 50.1 µM [inhibitor, partial curve, poor fit], Cc1ccc(/C=N/NC(=O)CSc2nc3ccccc3c(=O)n2-c2ccccc2C)s1 79.4 µM [inhibitor, single point], COc1cc(/C=C2/NC(=O)N(c3cccc(Cl)c3)C2=O)ccc1O 56.2 µM [inhibitor, partial curve, poor fit], Cc1cccc(NS(=O)(=O)c2nnc(NC(=O)c3ccc(Cl)cc3)s2)c1 22.4 µM [inhibitor, full curve, poor fit], COc1cc(/C=N/N(C)c2ccccc2)cc(Cl)c1O 39.8 µM [inhibitor, single point], Oc1ccc(-c2nc(-c3ccc(F)cc3)c(-c3ccncc3)[nH]2)cc1 1.58 µM [inhibitor, full curve, poor fit], Cc1ccc2cc(C)c3nnc(SCC(=O)NCc4ccco4)n3c2c1 56.2 µM [inhibitor, partial curve, poor fit], CC(C)C1Nc2c(O)cc(Cl)c([N+](=O)[O-])c2C2C=CCC21 (stereo not drawn) 25.1 µM [inhibitor, full curve, poor fit], Cn1c(N/N=C/c2ccccc2)nc2sc3c(c2c1=O)CCC3 20 µM [inhibitor, full curve, poor fit], Cc1ccc(OCCC(=O)OCC(=O)N2c3ccccc3NC(=O)C2(C)C)cc1 17.8 µM [inhibitor, partial curve, poor fit], CCOC(=O)N1CCC(NC(=O)c2cccc3c2C(=O)N(c2ccc(OC)cc2)C3)CC1 25.1 µM [inhibitor, single point], Nc1ccc(/C=C/c2ccnc3ccccc23)cc1[N+](=O)[O-] 89.1 µM [inhibitor, single point], CC(C)Cc1nc2oc3c(NCC(C)O)ncnc3c2c2c1CCCC2 (stereo not drawn) 39.8 µM [inhibitor, single point], COc1cccc(Nc2nnc(-c3cc4ccc(O)cc4oc3=O)s2)c1 50.1 µM [inhibitor, partial curve, poor fit], O=C(/C=C/c1c(F)cccc1Cl)c1ccc(F)cc1 10 µM [inhibitor, partial curve, poor fit], CC1(Cc2cn(CCC#N)c3ccccc23)OCCO1 10 µM [inhibitor, partial curve, poor fit], O=C(Nc1nc(NC(=O)c2ccco2)n(-c2ccccc2)n1)c1ccccc1 89.1 µM [inhibitor, single point], C=Cc1ccc(N=Cc2c(O)ccc3ccccc23)cc1 22.4 µM [inhibitor, single point], COc1ccc(C(=O)Nc2cccc(-c3cn4ccsc4n3)c2)cc1OC 89.1 µM [inhibitor, single point], COc1ccc(Cl)cc1NC(=S)NCCc1c[nH]c2ccccc12 14.1 µM [inhibitor, partial curve, poor fit]

Potency, active:
O=C(Cc1nnc(NC(=O)c2ccccc2)s1)N/N=C\c1ccc(O)c(O)c1 2.24 µM, COc1cc(/C=N/NC(=O)c2cc(-c3ccco3)nc3ccccc23)cc(OC)c1O 44.7 µM, CC(C)[C@H](NS(=O)(=O)c1cccc(Cl)c1)C(=O)OCC(=O)NC(=O)CN1CCCC1=O 50.1 µM, CCN(CC)CCCNc1nc2cc(OC)c(OC)cc2c2nc(-c3ccccc3)nn12 7.94 µM, COc1ccc2ccc3c(c2c1)N=CC1(O3)N(C)c2ccccc2C1(C)C (stereo not drawn) 5.01 µM
